In PMC8578336, “Neuroprotection of retinal ganglion cells by the sigma-1 receptor agonist pridopidine in models of experimental glaucoma” (Scientific Reports, 2021):
Where two headings read alike, the source gives them in different places.

Tested on: Wistar rats
Conditions: lasered eye, day 0-14

CCCN1CCC(c2cccc(S(C)(=O)=O)c2)CC1 [Pridopidine]
Area under curve (AUC) of IOP, total area (3 mg/kg daily oral): 255
Area under curve (AUC) of IOP, total area (30 mg/kg daily oral): 289
Area under curve (AUC) of IOP, total area (60 mg/kg daily oral): 295
